Assay results: article PMC4775226, “Active and water-soluble form of lipidated Wnt protein is maintained by a serum glycoprotein afamin/α-albumin” (eLife, 2016)
No constants are given. Whether binding was seen depends on the method and setting. Binding seen in cells or lysates may run through a third protein. Binding can be weak; no strength is given. Tags and fused reporters may be left off the sequences shown.

Molecular target: T1, Tg-tagged human afamin (human) (UniProt P43652)
T1 sequence: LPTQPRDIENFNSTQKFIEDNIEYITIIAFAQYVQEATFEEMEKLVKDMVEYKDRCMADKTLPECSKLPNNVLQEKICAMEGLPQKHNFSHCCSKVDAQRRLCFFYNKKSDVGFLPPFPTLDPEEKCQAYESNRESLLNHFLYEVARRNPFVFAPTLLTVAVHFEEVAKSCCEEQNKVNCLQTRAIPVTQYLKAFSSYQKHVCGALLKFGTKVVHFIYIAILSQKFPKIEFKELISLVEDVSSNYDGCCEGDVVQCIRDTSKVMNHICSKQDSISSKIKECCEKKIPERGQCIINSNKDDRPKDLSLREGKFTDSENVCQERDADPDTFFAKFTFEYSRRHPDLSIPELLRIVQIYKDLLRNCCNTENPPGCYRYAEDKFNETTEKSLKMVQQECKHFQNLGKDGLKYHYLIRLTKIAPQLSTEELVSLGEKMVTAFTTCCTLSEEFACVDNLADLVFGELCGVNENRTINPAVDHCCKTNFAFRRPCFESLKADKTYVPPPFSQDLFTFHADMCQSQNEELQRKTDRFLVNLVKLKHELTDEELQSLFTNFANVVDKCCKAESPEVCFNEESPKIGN
Experiment: co-IP; anti-Tg antibody P20.1-Sepharose, serum-free culture media of Expi293F cells co-transfected with Tg-hAFM and PA-tagged human Wnts; immunoblot with biotinylated NZ-1

- binding: binds
Substance: PA-tagged human Wnt2b
